Data published in paper PMC5440525.

Sequences of proteins named here, by UniProt entry; tags and fusion partners are left off. A change or cut given only in a name is not applied to a line headed by its entry.
UniProt P20029: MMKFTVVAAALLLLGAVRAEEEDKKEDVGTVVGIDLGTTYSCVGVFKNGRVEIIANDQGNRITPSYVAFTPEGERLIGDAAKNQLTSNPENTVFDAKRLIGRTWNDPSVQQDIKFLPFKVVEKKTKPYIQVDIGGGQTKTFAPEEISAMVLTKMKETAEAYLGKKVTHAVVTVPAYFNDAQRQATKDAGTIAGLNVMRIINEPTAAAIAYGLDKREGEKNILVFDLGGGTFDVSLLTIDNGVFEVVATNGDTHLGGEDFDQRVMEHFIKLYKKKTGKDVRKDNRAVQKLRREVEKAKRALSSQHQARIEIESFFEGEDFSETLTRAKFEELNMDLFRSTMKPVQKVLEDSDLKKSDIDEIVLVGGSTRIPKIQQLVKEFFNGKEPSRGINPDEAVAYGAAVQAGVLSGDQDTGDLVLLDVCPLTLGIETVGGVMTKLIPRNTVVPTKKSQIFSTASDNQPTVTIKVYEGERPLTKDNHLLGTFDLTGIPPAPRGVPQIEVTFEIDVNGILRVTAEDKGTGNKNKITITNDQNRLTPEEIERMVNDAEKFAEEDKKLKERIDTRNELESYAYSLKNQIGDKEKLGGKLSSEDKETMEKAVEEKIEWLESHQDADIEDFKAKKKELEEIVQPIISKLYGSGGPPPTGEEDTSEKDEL

Molecular target: T1, Recombinant fusion protein CD14-Fc (mouse) (UniProt P10810)
T1 sequence: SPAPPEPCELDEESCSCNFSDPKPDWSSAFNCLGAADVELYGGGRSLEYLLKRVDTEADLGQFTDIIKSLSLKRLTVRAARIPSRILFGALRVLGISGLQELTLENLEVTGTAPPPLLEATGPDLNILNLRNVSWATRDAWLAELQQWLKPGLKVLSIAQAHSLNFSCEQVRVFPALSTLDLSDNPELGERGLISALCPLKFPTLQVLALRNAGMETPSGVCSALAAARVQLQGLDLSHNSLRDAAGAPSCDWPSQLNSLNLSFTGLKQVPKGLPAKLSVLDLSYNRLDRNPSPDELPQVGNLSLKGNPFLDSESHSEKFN
Assay: pull-down; protein–protein interactive precipitation assay: CD14-Fc or Fc control immobilized onto protein G-agarose, incubated with GRP78 at 4°C overnight; immunoblot; both purified

- binding: binds
Substance: Recombinant mouse GRP78 (GST removed by thrombin cleavage) (from UniProt P20029)

These are yes or no findings as the source states them, for the method shown. A result given as binding can be weak or reduced; the word gives no strength. Tags and fused reporters may be left off the sequences shown.
